Results reported in article PMC5026473.
These are yes or no findings as the source states them, for the method shown. Binding seen in cells or lysates may run through a third protein. Some results given as binding are weak or reduced against the parent protein; the word gives no strength.

Chains of the proteins cited; added tags and fusions are not shown. Lines headed by an entry give the natural chain unless they say otherwise; changes in a name come on top. A line that says so, or that is headed by a name, gives the form on record, which may keep a tag or linker.
UniProt Q03280: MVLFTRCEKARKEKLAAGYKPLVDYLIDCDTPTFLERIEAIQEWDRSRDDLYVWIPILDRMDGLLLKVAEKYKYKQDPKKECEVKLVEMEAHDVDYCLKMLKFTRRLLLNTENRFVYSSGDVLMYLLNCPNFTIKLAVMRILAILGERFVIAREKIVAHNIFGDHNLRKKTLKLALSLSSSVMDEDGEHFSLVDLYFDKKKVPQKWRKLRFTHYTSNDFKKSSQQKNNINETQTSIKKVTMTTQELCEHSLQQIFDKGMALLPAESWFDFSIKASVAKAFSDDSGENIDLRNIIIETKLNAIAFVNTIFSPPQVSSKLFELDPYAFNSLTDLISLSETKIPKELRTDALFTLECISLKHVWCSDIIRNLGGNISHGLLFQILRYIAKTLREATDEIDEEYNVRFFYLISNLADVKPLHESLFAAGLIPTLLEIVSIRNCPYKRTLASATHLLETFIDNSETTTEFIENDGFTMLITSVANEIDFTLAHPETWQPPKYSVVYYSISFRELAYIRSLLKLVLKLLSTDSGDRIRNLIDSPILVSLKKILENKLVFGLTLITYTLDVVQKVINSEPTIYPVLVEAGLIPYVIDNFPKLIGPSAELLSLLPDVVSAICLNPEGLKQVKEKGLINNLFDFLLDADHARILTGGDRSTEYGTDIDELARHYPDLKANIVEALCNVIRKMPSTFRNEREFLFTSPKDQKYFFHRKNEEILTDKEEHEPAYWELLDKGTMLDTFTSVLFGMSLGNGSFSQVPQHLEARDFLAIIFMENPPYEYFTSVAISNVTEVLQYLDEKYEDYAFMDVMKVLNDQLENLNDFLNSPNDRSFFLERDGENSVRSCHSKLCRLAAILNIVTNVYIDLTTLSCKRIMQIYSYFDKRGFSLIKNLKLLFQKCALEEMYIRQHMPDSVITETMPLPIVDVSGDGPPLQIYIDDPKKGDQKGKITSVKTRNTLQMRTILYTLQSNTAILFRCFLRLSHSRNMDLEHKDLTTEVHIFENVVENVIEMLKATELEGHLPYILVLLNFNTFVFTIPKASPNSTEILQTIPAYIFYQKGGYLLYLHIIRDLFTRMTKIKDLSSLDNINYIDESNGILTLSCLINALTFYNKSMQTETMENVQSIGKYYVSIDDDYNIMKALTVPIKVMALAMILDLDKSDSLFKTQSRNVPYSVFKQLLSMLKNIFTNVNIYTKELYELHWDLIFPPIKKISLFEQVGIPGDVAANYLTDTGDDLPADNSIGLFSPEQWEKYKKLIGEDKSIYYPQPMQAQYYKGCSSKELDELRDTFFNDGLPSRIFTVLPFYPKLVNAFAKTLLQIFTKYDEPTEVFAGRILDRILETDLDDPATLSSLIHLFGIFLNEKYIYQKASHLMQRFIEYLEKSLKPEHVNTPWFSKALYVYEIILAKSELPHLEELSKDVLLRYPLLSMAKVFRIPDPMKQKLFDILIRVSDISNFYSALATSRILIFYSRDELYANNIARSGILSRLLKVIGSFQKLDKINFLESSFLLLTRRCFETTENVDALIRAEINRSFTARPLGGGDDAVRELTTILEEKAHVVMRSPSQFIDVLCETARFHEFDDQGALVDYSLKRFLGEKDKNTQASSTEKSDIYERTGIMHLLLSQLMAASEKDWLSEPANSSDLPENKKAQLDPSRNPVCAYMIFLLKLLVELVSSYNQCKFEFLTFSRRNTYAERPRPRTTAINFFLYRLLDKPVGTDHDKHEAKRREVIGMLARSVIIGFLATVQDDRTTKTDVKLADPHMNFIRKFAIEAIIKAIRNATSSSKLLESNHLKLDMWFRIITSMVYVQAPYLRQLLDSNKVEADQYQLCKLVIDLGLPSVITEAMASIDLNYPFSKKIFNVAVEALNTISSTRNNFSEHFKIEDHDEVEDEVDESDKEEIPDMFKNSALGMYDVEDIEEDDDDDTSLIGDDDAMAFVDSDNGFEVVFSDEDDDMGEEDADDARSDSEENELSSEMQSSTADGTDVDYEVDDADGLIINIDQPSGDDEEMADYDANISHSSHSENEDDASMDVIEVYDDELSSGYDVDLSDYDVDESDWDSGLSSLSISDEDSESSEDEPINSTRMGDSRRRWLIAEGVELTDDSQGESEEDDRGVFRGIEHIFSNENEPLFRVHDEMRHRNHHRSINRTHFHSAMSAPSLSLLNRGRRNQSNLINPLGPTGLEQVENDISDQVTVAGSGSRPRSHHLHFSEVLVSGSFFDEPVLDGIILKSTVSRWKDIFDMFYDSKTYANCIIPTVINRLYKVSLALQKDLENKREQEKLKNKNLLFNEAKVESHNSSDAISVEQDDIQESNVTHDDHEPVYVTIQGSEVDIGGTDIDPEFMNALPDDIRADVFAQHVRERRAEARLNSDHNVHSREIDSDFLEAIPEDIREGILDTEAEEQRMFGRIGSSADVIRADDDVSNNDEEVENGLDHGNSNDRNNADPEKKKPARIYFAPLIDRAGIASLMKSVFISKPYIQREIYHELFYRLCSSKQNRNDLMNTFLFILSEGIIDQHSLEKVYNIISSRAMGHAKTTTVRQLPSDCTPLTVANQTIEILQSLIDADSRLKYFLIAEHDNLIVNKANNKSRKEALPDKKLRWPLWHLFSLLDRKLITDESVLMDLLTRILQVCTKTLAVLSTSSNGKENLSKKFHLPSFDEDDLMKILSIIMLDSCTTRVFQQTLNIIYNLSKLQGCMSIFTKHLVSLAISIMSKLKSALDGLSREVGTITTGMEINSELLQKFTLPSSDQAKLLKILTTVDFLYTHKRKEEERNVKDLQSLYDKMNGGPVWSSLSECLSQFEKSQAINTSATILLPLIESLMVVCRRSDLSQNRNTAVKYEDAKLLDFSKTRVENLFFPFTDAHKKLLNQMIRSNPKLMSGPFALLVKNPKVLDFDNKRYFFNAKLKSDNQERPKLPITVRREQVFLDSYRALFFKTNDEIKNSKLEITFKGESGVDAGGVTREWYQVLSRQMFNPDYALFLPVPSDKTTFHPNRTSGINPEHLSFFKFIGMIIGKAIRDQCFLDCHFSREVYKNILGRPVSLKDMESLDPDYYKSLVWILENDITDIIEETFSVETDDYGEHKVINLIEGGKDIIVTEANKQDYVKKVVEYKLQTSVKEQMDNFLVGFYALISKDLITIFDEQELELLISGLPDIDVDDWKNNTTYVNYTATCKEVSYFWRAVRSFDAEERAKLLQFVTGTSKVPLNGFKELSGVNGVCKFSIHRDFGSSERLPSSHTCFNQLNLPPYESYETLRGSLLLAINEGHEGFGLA
3×HA-tagged ligase-dead Tom1 (^3×HATom1^CA, Cys3235Ala) (Q03280, form named): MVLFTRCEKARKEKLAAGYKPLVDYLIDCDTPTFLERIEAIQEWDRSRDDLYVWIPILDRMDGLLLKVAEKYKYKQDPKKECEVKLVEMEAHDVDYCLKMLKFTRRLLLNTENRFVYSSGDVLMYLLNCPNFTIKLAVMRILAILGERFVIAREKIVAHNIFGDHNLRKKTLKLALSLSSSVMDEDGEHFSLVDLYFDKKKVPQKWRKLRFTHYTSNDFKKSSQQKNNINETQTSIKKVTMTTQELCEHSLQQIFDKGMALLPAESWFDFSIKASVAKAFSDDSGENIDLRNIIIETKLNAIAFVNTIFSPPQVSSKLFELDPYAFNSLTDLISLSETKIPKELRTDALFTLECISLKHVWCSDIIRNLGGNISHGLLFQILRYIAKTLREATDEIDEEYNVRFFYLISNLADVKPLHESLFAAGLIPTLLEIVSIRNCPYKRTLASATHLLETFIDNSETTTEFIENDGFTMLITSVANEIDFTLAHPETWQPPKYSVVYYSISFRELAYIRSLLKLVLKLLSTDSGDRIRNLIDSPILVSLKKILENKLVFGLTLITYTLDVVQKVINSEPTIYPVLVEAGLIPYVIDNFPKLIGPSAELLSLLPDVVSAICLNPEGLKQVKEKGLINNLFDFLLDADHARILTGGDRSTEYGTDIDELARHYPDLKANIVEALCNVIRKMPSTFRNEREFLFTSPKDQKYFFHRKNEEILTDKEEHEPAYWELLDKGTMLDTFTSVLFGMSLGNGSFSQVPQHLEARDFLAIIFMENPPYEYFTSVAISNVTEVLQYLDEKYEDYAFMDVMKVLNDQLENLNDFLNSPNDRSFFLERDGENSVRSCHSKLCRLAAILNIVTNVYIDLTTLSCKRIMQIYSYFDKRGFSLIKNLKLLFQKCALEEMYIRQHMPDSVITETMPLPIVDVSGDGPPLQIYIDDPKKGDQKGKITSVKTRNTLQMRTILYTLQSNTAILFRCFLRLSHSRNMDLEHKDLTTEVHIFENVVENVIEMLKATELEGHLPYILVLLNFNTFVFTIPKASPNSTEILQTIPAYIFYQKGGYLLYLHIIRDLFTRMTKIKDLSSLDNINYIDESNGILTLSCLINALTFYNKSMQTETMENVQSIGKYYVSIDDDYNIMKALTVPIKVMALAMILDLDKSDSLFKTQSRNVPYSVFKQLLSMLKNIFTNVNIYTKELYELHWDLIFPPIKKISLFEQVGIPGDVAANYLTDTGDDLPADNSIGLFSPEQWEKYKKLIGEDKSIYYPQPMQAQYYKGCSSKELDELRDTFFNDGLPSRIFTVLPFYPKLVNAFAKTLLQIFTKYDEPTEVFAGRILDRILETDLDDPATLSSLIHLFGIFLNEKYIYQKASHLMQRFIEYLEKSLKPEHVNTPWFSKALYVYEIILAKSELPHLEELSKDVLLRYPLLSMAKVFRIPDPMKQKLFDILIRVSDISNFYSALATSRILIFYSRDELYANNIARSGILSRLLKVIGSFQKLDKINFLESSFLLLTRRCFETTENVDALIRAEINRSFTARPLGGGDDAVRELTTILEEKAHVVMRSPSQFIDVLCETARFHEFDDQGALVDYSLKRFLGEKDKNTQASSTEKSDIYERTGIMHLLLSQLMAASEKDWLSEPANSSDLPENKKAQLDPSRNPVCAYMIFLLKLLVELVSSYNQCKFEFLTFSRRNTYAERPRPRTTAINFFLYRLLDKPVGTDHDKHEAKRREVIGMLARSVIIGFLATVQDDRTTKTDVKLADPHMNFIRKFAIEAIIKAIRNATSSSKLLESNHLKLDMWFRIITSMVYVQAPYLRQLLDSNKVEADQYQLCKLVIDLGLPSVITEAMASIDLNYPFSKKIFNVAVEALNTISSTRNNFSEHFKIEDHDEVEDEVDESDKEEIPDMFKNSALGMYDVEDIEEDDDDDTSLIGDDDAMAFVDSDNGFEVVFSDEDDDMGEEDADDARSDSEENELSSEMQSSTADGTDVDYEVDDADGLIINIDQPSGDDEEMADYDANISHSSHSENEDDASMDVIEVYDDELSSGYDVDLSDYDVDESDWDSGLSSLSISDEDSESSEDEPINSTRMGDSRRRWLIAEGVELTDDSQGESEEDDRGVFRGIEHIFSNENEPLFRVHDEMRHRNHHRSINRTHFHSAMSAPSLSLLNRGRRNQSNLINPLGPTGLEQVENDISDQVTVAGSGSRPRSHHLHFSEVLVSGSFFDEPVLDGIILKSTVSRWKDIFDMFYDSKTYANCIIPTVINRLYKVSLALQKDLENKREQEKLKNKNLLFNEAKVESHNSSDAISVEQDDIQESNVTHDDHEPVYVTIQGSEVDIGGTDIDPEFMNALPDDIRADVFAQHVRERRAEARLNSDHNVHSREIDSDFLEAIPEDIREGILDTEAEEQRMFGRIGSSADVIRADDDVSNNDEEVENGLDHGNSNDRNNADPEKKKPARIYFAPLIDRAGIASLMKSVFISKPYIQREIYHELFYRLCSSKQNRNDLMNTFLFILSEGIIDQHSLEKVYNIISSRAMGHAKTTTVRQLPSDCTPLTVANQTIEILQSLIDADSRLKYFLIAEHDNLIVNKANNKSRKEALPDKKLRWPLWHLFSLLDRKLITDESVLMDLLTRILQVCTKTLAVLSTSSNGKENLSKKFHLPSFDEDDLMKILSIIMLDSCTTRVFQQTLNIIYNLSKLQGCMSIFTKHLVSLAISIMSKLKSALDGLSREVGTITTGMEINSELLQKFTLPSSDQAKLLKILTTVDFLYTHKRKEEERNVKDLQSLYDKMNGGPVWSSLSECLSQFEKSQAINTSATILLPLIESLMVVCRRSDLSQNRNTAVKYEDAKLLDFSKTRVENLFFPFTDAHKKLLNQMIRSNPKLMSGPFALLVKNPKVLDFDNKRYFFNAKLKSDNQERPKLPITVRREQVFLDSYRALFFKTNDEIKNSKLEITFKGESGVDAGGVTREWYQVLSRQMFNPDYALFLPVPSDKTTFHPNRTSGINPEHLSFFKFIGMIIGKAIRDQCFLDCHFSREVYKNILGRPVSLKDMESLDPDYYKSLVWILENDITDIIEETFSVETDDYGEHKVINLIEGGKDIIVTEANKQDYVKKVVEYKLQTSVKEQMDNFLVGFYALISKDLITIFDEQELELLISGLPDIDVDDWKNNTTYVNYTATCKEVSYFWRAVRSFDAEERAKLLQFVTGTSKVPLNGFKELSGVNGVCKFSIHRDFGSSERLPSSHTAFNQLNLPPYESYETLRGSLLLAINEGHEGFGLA

What was measured:
[1] = biological target: 3×HA-tagged Tom1 (^3×HATom1) (S. cerevisiae) (UniProt Q03280); experiment: co-IP; anti-HA immunoprecipitates from lysates of yeast cells expressing ^3×HATom1 or ^3×HATom1^CA and galactose-induced Rpl26a^FLAG (wild type or 4E), in some experiments after bortezomib; immunoblot with anti-HA and anti-FLAG
[2] = biological target: 3×HA-tagged Tom1 (^3×HATom1) (S. cerevisiae) (UniProt Q03280); experiment: co-IP; cells treated with bortezomib for 30 min after galactose induction of Rpl26a^FLAG, lysed and fractionated on a sucrose gradient; immunoprecipitation from the low MW (non-ribosomal) fractions
[3] = biological target: 3×HA-tagged ligase-dead Tom1 (^3×HATom1^CA, Cys3235Ala) (S. cerevisiae) (UniProt Q03280); experiment: as above
[4] = biological target: 3×HA-tagged ligase-dead Tom1 (^3×HATom1^CA, Cys3235Ala) (S. cerevisiae) (UniProt Q03280); experiment: co-IP; anti-HA immunoprecipitates from lysates of yeast cells expressing ^3×HATom1 or ^3×HATom1^CA and galactose-induced Rpl26a^FLAG (wild type or 4E), in some experiments after bortezomib; immunoblot with anti-HA and anti-FLAG

Substance	binding [1]	binding [2]	binding [3]	binding [4]
Rpl26a-4E^FLAG (R12E, R13E, R16E, K17E) (from UniProt P05743 1-127)	binds weakly			
Rpl26a tagged with a FLAG epitope (Rpl26a^FLAG) (from UniProt P05743 1-127)	binds	binds	binds	binds
